Values joined by “and” are separate entries in the source; they are usually repeats but may differ in a detail not shown here. Equal values may be shown once. Screen size: about 1,200 compounds; fewer than 10 were called active. Calls follow the shape of the dose curve; as a rule, active = well fitted curve in the direction sought with a large enough effect; inconclusive = small, poorly fitted or top-dose-only effect, or another doubt; inactive = no such curve, though single readings can be large or run the other way. The list shows a part of the results.

A short description of the assay: Confirmatory qHTS assay for inhibitors of Activation Induced Cytidine Deaminase (AID): UDG signals. Also: 0% is about no effect. The following applies: UDG coupled enzyme activity counter-screen; at 115 µM (top of the series) unless noted. Summed up: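 UDG readout, a counterscreen: AID (1 uM, 4/3x) plus UDG (2 U/mL, 4/3x) preincubated 10 min with compound (7.32 nM - 114 uM final), then 4 h with DJC20/DJC23 substrates at room temperature; NaOH added, fluorescence read at 560/665 nm.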
In general terms: qHTS replaces the single test concentration by a dilution series.
As for `O=C(Cc1ccccc1F)N1CCC(c2nc3c(nnn3Cc3cccc(Cl)c3)c(=O)[nH]2)CC1`, the activity change, negative = inhibition was inactive: 6.48%.

Regarding `COc1ccc(-n2cc(-c3ccccc3)c3c(NCCc4ccc(OC)c(OC)c4)ncnc32)cc1`, the activity change, negative = inhibition is inactive: 3.75%.

On to `CCCCCCCCc1ccc(-c2ccc(C(=O)O)cc2)cc1`, for which the activity change, negative = inhibition was inactive: -2.26% and inactive: -1.29%.

Turning to `Cc1ccccc1OCC(=O)N(Cc1ccc(C(C)C)cc1)C1CCS(=O)(=O)C1` (configuration not stated), the activity change, negative = inhibition is inactive: -3.95%.

Consider `COc1cc2c(cc1OC)C(COc1ccc(C(C)C)cc1)N(C(=O)COc1ccccc1)CC2` (configuration not stated), for which the activity change, negative = inhibition was inactive: -8.68%.

Regarding `Cc1cccc(N2CCN(C(=O)C3CCN(c4ncnc5c4nc4n5CCCCC4)CC3)CC2)c1C`, the activity change, negative = inhibition was inactive: -5.04%.

`Cc1cccc(Cn2c(=O)n3nc(-c4ccccc4)nc3c3ccccc32)c1`: the activity change, negative = inhibition was inactive: -4.8%.

For `CCOc1ccc(Nc2sc(C(=O)c3ccc(F)cc3)c(N)c2S(=O)(=O)c2ccc(C)cc2)cc1`, the activity change, negative = inhibition is inactive: -3.57%.

Consider `Cc1cccc(NC(=O)CC2Nc3cccc4cccc(c34)NC2=O)c1` (configuration not stated), for which the activity change, negative = inhibition was inactive: -9.66%.

Consider `Cc1nc2nc(SCC(=O)N(C)Cc3ccccc3)nn2c(C)c1Cc1ccccc1Cl`, for which the activity change, negative = inhibition is inactive: -4.76%.

Consider `COc1ccc2c(c1)Cc1sc(NC(=O)c3ccccc3C)nc1-2`, for which the activity change, negative = inhibition is inactive: 4.61%.

Consider `CCCCOc1ccc(C(=O)NCC(c2ccc(Cl)cc2)N2CCOCC2)cc1` (configuration not stated), for which the activity change, negative = inhibition is inactive: 6.3%.

On to `Cc1ccc(S(=O)(=O)C(CNC(=O)COc2ccccc2)c2cccs2)cc1` (configuration not stated), for which the activity change, negative = inhibition was inactive: -5.17%.

Regarding `Cc1ccccc1CN1C(=O)c2ccccc2Sc2ccc(C(=O)O)cc21`, the activity change, negative = inhibition was inactive: 7.26%.

In the case of `CCOC(=O)c1ccc(NC(=O)CC2Nc3cccc4cccc(c34)NC2=O)cc1` (configuration not stated), the activity change, negative = inhibition is inactive: 1.73%.

With `CCOc1ccccc1NC(=O)Nc1ccc2nc(N3CCN(C)CC3)cc(C)c2c1`, the activity change, negative = inhibition is inactive: -3.46%.

As to `O=C(CN(c1ccc(Cl)c(C(F)(F)F)c1)S(=O)(=O)c1ccccc1)Nc1cccnc1`, the activity change, negative = inhibition is inactive: 5.24%.

Turning to `COC(=O)c1cc(Cl)ccc1NC(=O)CSc1ncc(S(=O)(=O)c2ccc(Br)cc2)c(=O)[nH]1`, the activity change, negative = inhibition was inactive: 0.448%.

On to `CCOC(=O)c1cnc2ccc(C)cc2c1Nc1ccc(N(CC)CC)cc1`, for which the activity change, negative = inhibition was inactive: -13.4%.

In the case of `CCN1CCN(c2cc(C)c3cc(NC(=O)/C=C/c4cccc(Cl)c4)ccc3n2)CC1`, the activity change, negative = inhibition is inactive: 2.14%.

Take `COc1cccc(C2CC(=O)N3CN(C4CCCCC4)CSC3=C2C#N)c1` (configuration not stated): the activity change, negative = inhibition is inactive: -0.724%.

For `COc1ccc(CCNC(=O)c2nn(C)c3c2CSc2ccccc2-3)cc1OC`, the activity change, negative = inhibition was inactive: -6.28%.

As to `COc1cccc(-n2c(SCC(=O)Nc3cccc(C)c3)nc3c([nH]c4ccccc43)c2=O)c1`, the activity change, negative = inhibition is inactive: -2.78%.

For `Cc1ccccc1C(=O)Nc1sc2c(c1C(=O)O)CCC(C(C)(C)C)C2` (configuration not stated), the activity change, negative = inhibition was inactive: -0.45%.

For the molecule `CCC1CCCCN1CCCNC(=O)c1cn(CC)c2ccc(S(=O)(=O)N(C)C3CCCCC3)cc2c1=O` (configuration not stated), the activity change, negative = inhibition was inactive: -0.267%.

For `COc1cc(NC(=O)CCc2c(C)nc3c4c(C)cc(C)nc4nn3c2C)cc(OC)c1`, the activity change, negative = inhibition was inactive: 3.35%.

With `O=C(NCCc1ccccc1)c1ccc2c(c1)CCN2S(=O)(=O)c1ccccc1`, the activity change, negative = inhibition is inactive: -8.15%.

As for `Nc1ccc2oc(Cc3ccc(Cl)cc3)nc2c1`, the activity change, negative = inhibition is inactive: -1%.

Turning to `COc1ccc(N(C)C(=O)c2cc3c(s2)-c2ccccc2OC3)cc1`, the activity change, negative = inhibition is inactive: -11.3%.

As for `O=C(c1ccc(Cl)cc1)c1cn(Cc2ccccc2)c2cc3c(cc2c1=O)OCCO3`, the activity change, negative = inhibition was inactive: -1.61%.

`CCOC(=O)C1=C(CN2CCN(c3cc(C)ccc3C)CC2)NC(=O)NC1c1ccccc1` (configuration not stated): the activity change, negative = inhibition is inactive: -4.59%.

As to `Cc1ccc(NCc2nc3ccccc3n2CCOc2ccccc2C)cc1`, the activity change, negative = inhibition was inactive: -1.46%.

Take `Cc1cc(Nc2cccc(F)c2)n2nc(-c3ccco3)nc2n1`: the activity change, negative = inhibition was inactive: -1.28%.

For `Cc1ccc2oc(=O)n(CCCOc3ccccc3Cl)c2c1`, the activity change, negative = inhibition is inactive: -2.09%.

Consider `Cc1cc(Nc2cccc(C(F)(F)F)c2)nc2ccc(NC(=O)c3cccc(Cl)c3)cc12`, for which the activity change, negative = inhibition was inactive: -10.8%.

As to `Cn1nnnc1SCCNCc1cc(Br)ccc1OCc1ccccc1Cl`, the activity change, negative = inhibition was inactive: -14.9%.

On to `COc1cccc(NC(=O)Cn2cc(C(=O)c3ccc(C)cc3)c(=O)c3cc(OC)ccc32)c1`, for which the activity change, negative = inhibition is inactive: 0.647%.

Turning to `CC(C)(C)c1ccc(OCC(=O)NCC2(N3CCOCC3)CCCCC2)cc1`, the activity change, negative = inhibition was inactive: -6.27%.

As to `CCc1ccc(NC(=O)CSc2nc(-c3cccc(OC)c3)nc3c2Cc2c(CO)cnc(C)c2O3)cc1`, the activity change, negative = inhibition was inactive: 3.85%.

Regarding `COc1ccc(OC)c(CNC(=O)c2nn(C)c3c2CS(=O)(=O)c2ccccc2-3)c1`, the activity change, negative = inhibition was inactive: 6.53%.

For `CCCCN(CC)C(=O)c1nn(-c2ccc(OC)cc2)c(=O)c2c1c1ccccc1n2C`, the activity change, negative = inhibition is inactive: -1.94%.

In the case of `Cc1cc(C)c2c(CC(=O)N(Cc3ccc(Cl)cc3)Cc3ccco3)coc2c1`, the activity change, negative = inhibition is inactive: 2.44%.

On to `Cc1ccc(NC(=O)Cn2nc(Cc3ccncc3)c3ccccc3c2=O)c(Cl)c1`, for which the activity change, negative = inhibition was inactive: 12.6%.

Turning to `CC(C)c1ccc(S(=O)(=O)c2cnc(SCC(=O)Nc3ccc4c(c3)OCCO4)[nH]c2=O)cc1`, the activity change, negative = inhibition was inactive: 9.75%.

For `Oc1ccc(NCc2ccccc2OCc2ccc(Cl)cc2)cc1`, the activity change, negative = inhibition was inactive: -21.4%.

In the case of `CCOc1ccc(CCNC(=O)c2cn(CC)c3ccc(S(=O)(=O)N4CCCCCC4)cc3c2=O)cc1OCC`, the activity change, negative = inhibition is inactive: -15.9%.

In the case of `N=c1n(CCN2CCCCC2)c2ccccc2n1CC(O)COc1ccc(Cl)cc1Cl` (configuration not stated), the activity change, negative = inhibition was inactive: -4.14%.

For the molecule `O=C(CC1N=C2c3ccccc3N=C(SCc3ccccc3F)N2C1=O)NCc1ccc2c(c1)OCO2` (configuration not stated), the activity change, negative = inhibition was inactive: 1.74%.

On to `O=C(NCCc1nc2ccccc2n1CCCOc1ccc(Cl)cc1)C1CCCCC1`, for which the activity change, negative = inhibition was inactive: -5.51%.

Regarding `Fc1ccc(Cn2c(-c3cccc(Br)c3)nc3ccccc32)cc1`, the activity change, negative = inhibition was inactive: -6.83%.

Turning to `CCn1c(=O)c2cc(C(=O)NCCCN3CCC(C)CC3)sc2c2ccccc21`, the activity change, negative = inhibition is inactive: -5.82%.

For `Cc1cccc(N2CCN(C(=O)Cn3nc(Cc4cccnc4)c4ccccc4c3=O)CC2)c1C`, the activity change, negative = inhibition is inactive: -10.3%.

`CC(C)(C)c1ccc(C(=O)N2CCC(c3nc4ccccc4o3)CC2)cc1`: the activity change, negative = inhibition was inactive: -4.92%.

Take `Cc1ccc(Cl)cc1NC(=O)C(C)n1nc(-c2ccccc2)ccc1=O` (configuration not stated): the activity change, negative = inhibition is inactive: -9.16%.

For `COc1ccc(-c2nc(SCC(=O)Nc3ccc4c(c3)OCO4)c(-c3ccc(OC)cc3)[nH]2)cc1`, the activity change, negative = inhibition was inactive: -7.71%.

Take `COc1cc(Cl)c(C)cc1NC(=O)CSc1ncc(S(=O)(=O)c2ccc(C(C)(C)C)cc2)c(=O)[nH]1`: the activity change, negative = inhibition is inactive: 7.68%.

Regarding `C=Cc1ccc(CN2C(=O)N(c3cccc(Cl)c3)S(=O)(=O)c3ccccc32)cc1`, the activity change, negative = inhibition was inactive: -5.39%.

For `COc1ccccc1C(=O)NCCn1cc(SCc2ccccc2Cl)c2ccccc21`, the activity change, negative = inhibition was inactive: -1.5%.

In the case of `CC(C)(C)OC(=O)N1CCC(c2c(C(=O)NCCN3CCC(Cc4ccccc4)CC3)cnn2-c2ccccc2)CC1`, the activity change, negative = inhibition was inactive: -12%.

Turning to `CCCCOc1ccc(C(=O)N(Cc2ccc(C(C)C)cc2)C2CCS(=O)(=O)C2)cc1` (configuration not stated), the activity change, negative = inhibition was inactive: -7.5%.

Take `COc1ccc(OCC(=O)NCC(c2ccc(Cl)cc2)N2CCCCC2)cc1` (configuration not stated): the activity change, negative = inhibition was inactive: -10.1%.

As to `CCc1ccccc1NC(=O)CSc1nc(-c2ccccc2OC)nc2c1Cc1c(CO)cnc(C)c1O2`, the activity change, negative = inhibition is inactive: -7.96%.

In the case of `Cc1nc2nc(SCC(=O)NCCc3ccc(Cl)cc3)nn2c(C)c1Cc1ccccc1`, the activity change, negative = inhibition was inactive: -0.826%.

Consider `CN1CCN(c2nc3c(S(=O)(=O)c4ccc(Br)cc4)nnn3c3ccsc23)CC1`, for which the activity change, negative = inhibition is inactive: 6.17%.

For the molecule `Cc1ccc(N2C(=O)c3[nH]nc(-c4ccc(Cl)cc4)c3C2c2ccc(F)cc2)cc1` (configuration not stated), the activity change, negative = inhibition was inactive: -4.01%.

In the case of `Cc1c(C)n(C)c2ccc(C(=O)N3CCN(c4ccccc4)CC3)cc12`, the activity change, negative = inhibition was inactive: 5.96%.

Take `Cc1ccc(S(=O)(=O)Nc2nc3n(n2)C(c2ccccc2Cl)C=C(c2ccccc2)N3)cc1` (configuration not stated): the activity change, negative = inhibition was inactive: -2.79%.

On to `Clc1ccccc1C(c1ccccc1)(c1ccccc1)n1ccnc1`, for which the activity change, negative = inhibition is inactive: -13.3%.

As for `O=C(C1CCC(Cn2c(=O)c3sccc3n(Cc3cccc(F)c3)c2=O)CC1)N1CCCCC1` (configuration not stated), the activity change, negative = inhibition was inactive: -11.8%.

For the molecule `Cc1c(-c2cccc(NC(=O)Nc3ccc(Cl)cc3)c2)nc2ncccn12`, the activity change, negative = inhibition was inactive: -4.09%.

Consider `COc1ccc(-n2cc(-c3ccccc3)c3c(NC4CCCC4)ncnc32)cc1`, for which the activity change, negative = inhibition was inactive: -4.59%.

With `Cc1ccc(Cn2cc(C(=O)c3ccc4c(c3)OCO4)c(=O)c3cc(C)ccc32)cc1`, the activity change, negative = inhibition is inactive: -3.57%.

Take `CC1CCN(S(=O)(=O)c2ccc3c(c2)c(=O)c(C(=O)NC(C)c2ccccc2)cn3C)CC1` (configuration not stated): the activity change, negative = inhibition is inactive: -3.17%.

`Cc1ccc2nc(Cl)c3cc(C(=O)N4CCCCC4C)sc3c2c1` (configuration not stated): the activity change, negative = inhibition was inactive: -1.83%.

Consider `CC(c1ccccc1)n1cc2c(c1-c1ccccc1Br)c(=O)n(C)c(=O)n2C` (configuration not stated), for which the activity change, negative = inhibition is inactive: -11.4%.

With `COc1ccccc1-c1nc2cc(NC(=O)c3ccccc3Cl)ccc2o1`, the activity change, negative = inhibition is inactive: -0.488%.

For the molecule `Cc1nc(-c2ccc(F)cc2)sc1CCNC(=O)c1ccc(C(C)(C)C)cc1`, the activity change, negative = inhibition was inactive: -7.49%.

As for `COc1ccc(C(=O)Nc2nc3c(s2)Cc2cc(OC)ccc2-3)cc1`, the activity change, negative = inhibition was inactive: -5.77%.

With `CCC1CN(C(=O)N2CCC(C(=O)N3CCN(c4cc(C)ccc4C)CC3)CC2)c2ccccc2O1` (configuration not stated), the activity change, negative = inhibition is inactive: -9.59%.

Turning to `CC1CCN(C(=O)C(C)Sc2nc(-c3ccccc3)cc(C(F)(F)F)n2)CC1` (configuration not stated), the activity change, negative = inhibition was inactive: 0.843%.

As for `O=C(CCCCCn1c(=O)[nH]c2ccccc2c1=O)NCc1ccc(Cl)cc1`, the activity change, negative = inhibition was inactive: 2.09%.

Take `COc1ccc(CCNC(=O)Cn2nc(C)c3c(C)n(-c4ccc(C)cc4)nc3c2=O)c(OC)c1`: the activity change, negative = inhibition is inactive: -0.414%.

Values taken from PubChem BioAssay AID1347431 (National Center for Advancing Translational Sciences (NCATS), 2020).
